In article PMC6881253, “The PCNA interaction motifs revisited: thinking outside the PIP-box” (Cellular and Molecular Life Sciences: CMLS, 2019):
Ends that are not written are not given here.

Assay: NMR secondary Cα chemical shifts / helicity of unbound peptides
Format: physicochemical
Details: unbound peptide, pH 6.3, 25 °C; for < Δδ > C^α, NMR: average secondary Cα chemical shift over the motif; for %helicity, NMR: using 100% helicity as < Δδ > C^α of 3.2 ppm

Substance	< Δδ > C^α, NMR [ppm]	%helicity, NMR [%]
MIGQKTLYSFFTPSP [UNG2]	0.03	1
Ac-MDRWLVKW-NH2 [APIM]	0.20	6.3
Ac-TQGRLDDFFKVTGSL-NH2 [FEN1]	0.12	3.8
Ac-RQSTLYSFFPKSPAL-NH2 [MSH6]		0
